The values that follow come from PubChem BioAssay AID212 (DTP/NCI, 2004).

In the experiment the test system is BDF1 mice, colon carcinoma 38 sc, T/C %. Put plainly: NCI In Vivo Anticancer Drug Screen. Data for tumor model Colon Carcinoma 38 (subcutaneous) in B6D2F1 (BDF1) mice. Particulars: for T/C: evaluated on day 20. The gist of the method: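 T/C readout: treated group (T) measurement over vehicle control group (C) measurement. Endpoint is survival or tumor size in mice bearing a transplanted tumor.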

Setting [1] is: T/C endpoint: median tumor weight (est.), dose: 25.0 mg/kg/injection, schedule: Q07DX002 (ip), vehicle: saline, higher T/C = larger tumour.
The mark [2] stands for this setting: T/C endpoint: median tumor weight (est.), dose: 50.0 mg/kg/injection, schedule: Q07DX002 (ip), vehicle: Klucel (hydroxypropylcellulose) (HPC), higher T/C = larger tumour.
The mark [3] stands for this setting: T/C endpoint: median tumor weight (est.), dose: 200.0 mg/kg/injection, schedule: Q07DX002 (ip), vehicle: saline, higher T/C = larger tumour.
The mark [4] stands for this setting: T/C endpoint: median tumor weight (est.), dose: 400.0 mg/kg/injection, schedule: Q07DX002 (ip), vehicle: saline, higher T/C = larger tumour.

The list shows only some results of the screen, not a fair sample: it is rich in T/C values a quarter to a half above the control, in often repeated tests (any T/C) and in doses without a T/C. Further doses and runs are listed elsewhere. T/C: endpoint of the treated group in % of that of the vehicle group. Schedules are NCI's codes, read here as Q, the interval in days (D) or hours (H), X, the number of doses. Some T/C values carry the count of animals alive at the toxicity check (mostly the fifth day); without a count, all were alive then. Some doses were run more than once; the results are listed from low to high. Signs of the kind (2×) give the number of equal values in this list. Some doses have a count of surviving animals in place of a T/C: the source files T/C as zero there, which appears to mark a toxic dose or a test without result, not a measured value. Counts of survivors are from the toxicity check (mostly the fifth day) where no day follows; animals may have died later.

Take `CCN(CC)CCOC(=O)Cc1cccc2c(=O)cc(-c3ccccc3)oc12`: the survivor count is, setting by setting: (T/C endpoint: median survival time, dose: 88.0 mg/kg/injection, schedule: Q07DX002 (ip), vehicle: saline, higher T/C = longer survival) 6 of 10 on day 97; (T/C endpoint: median survival time, dose: 300.0 mg/kg/injection, schedule: Q07DX002 (ip), vehicle: saline, higher T/C = longer survival) 0 of 10 on day 97; (T/C endpoint: median survival time, dose: 450.0 mg/kg/injection, schedule: Q07DX002 (ip), vehicle: saline, higher T/C = longer survival) 0 of 10 on day 97; (T/C endpoint: median survival time, dose: 675.0 mg/kg/injection, schedule: Q07DX002 (ip), vehicle: saline, higher T/C = longer survival) 0 of 10 on day 97; (T/C endpoint: median tumor weight (est.), dose: 50.0 mg/kg/injection, schedule: Q07DX002 (iv), vehicle: saline, higher T/C = larger tumour) 0 of 10 on day 20 and 5 of 10 on day 20; (T/C endpoint: median tumor weight (est.), dose: 100.0 mg/kg/injection, schedule: Q07DX002 (iv), vehicle: saline, higher T/C = larger tumour) 0 of 10 on day 20. For the same compound, the survivor count by setting is: (T/C endpoint: median tumor weight (est.), dose: 150.0 mg/kg/injection, schedule: Q07DX002 (iv), vehicle: saline, higher T/C = larger tumour) 0 of 10 on day 20; under setting [3], 0 of 10 on day 20, 3 of 10 on day 20, 5 of 10 on day 20, 6 of 10 on day 20; (T/C endpoint: median tumor weight (est.), dose: 200.0 mg/kg/injection, schedule: Q07DX002 (iv), vehicle: saline, higher T/C = larger tumour) 0 of 10 on day 20; (T/C endpoint: median tumor weight (est.), dose: 300.0 mg/kg/injection, schedule: Q07DX002 (iv), vehicle: saline, higher T/C = larger tumour) 0 of 10 on day 20; (T/C endpoint: median tumor weight (est.), dose: 356.0 mg/kg/injection, schedule: Q07DX002 (ip), vehicle: saline, higher T/C = larger tumour) 6 of 10 on day 20; under setting [4], 0 of 10 on day 20, 1 of 10 on day 20, 4 of 10 on day 20. The survivor count is given as 0 of 10 on day 20 (T/C endpoint: median tumor weight (est.), dose: 400.0 mg/kg/injection, schedule: Q07DX002 (iv), vehicle: saline, higher T/C = larger tumour) and 0 of 10 on day 20 (T/C endpoint: median tumor weight (est.), dose: 800.0 mg/kg/injection, schedule: Q07DX002 (ip), vehicle: saline, higher T/C = larger tumour). Also, the T/C was 129 % of control (T/C endpoint: median tumor weight (est.), dose: 21.0 mg/kg/injection, schedule: Q07DX002 (iv), vehicle: saline, higher T/C = larger tumour); 62, 88, 97, 105 % of control under setting [1]; 126 % of control under setting [2]; 37, 42, 46, 49, 55, 58, 59, 60, 62, 63, 69, 71, 75, 78, 82, 84, 86, 88, 89, 97 (2×), 99, 106, 107, 109, 111, 112, 121, 122, 124, 126 [9 of 10 alive on day 20], 134 [8 of 10 alive on day 20], 143, 192 % of control [9 of 10 alive on day 20] (T/C endpoint: median tumor weight (est.), dose: 50.0 mg/kg/injection, schedule: Q07DX002 (ip), vehicle: saline, list 1 of 2, higher T/C = larger tumour); 34 [8 of 10 alive on day 20], 38, 42, 48, 54 [9 of 10 alive on day 20], 56, 59 (2×), 61, 62, 64 [9 of 10 alive on day 20], 69, 73, 77 [9 of 10 alive on day 20], 80 [8 of 10 alive on day 20], 83, 85, 88, 89, 94, 97 [9 of 10 alive on day 20], 99, 100, 106, 108, 109, 111 [9 of 10 alive on day 20], 113 [7 of 10 alive on day 20], 122, 123, 125, 129, 137, 155 % of control (T/C endpoint: median tumor weight (est.), dose: 50.0 mg/kg/injection, schedule: Q07DX002 (ip), vehicle: saline, list 2 of 2, higher T/C = larger tumour); 42, 51, 56, 57, 65 [8 of 10 alive on day 20], 69, 69 [9 of 10 alive on day 20], 71, 72, 78 [9 of 10 alive on day 20], 79, 81, 82, 83, 85, 89, 90 [9 of 10 alive on day 20], 92, 94, 96, 99, 100, 101, 104, 114, 124, 129, 134 [9 of 10 alive on day 20], 138, 139 [9 of 10 alive on day 20], 142, 152, 158, 168 % of control (T/C endpoint: median tumor weight (est.), dose: 100.0 mg/kg/injection, schedule: Q07DX002 (ip), vehicle: saline, list 1 of 2, higher T/C = larger tumour). Further, the T/C is 32, 45, 53, 56, 64, 69, 69 [9 of 10 alive on day 20], 70 [9 of 10 alive on day 20], 71, 78 [9 of 10 alive on day 20], 79, 80, 82, 83, 84 [9 of 10 alive on day 20], 87, 89, 91, 92 [7 of 10 alive on day 20], 96, 99 [8 of 10 alive on day 20], 100, 101, 102, 113, 115, 127, 132, 135, 139, 141, 146, 158, 163 % of control (T/C endpoint: median tumor weight (est.), dose: 100.0 mg/kg/injection, schedule: Q07DX002 (ip), vehicle: saline, list 2 of 2, higher T/C = larger tumour) and 1 [8 of 10 alive on day 20], 2 (2×), 4, 8, 10, 16, 20, 38, 95 % of control under setting [3].

Consider `COC(=O)C(Cl)(Cl)N=Nc1c(Cl)cc(Cl)c(C)c1Cl`, for which the T/C (T/C endpoint: median tumor weight (est.), dose: 100.0 mg/kg/injection, schedule: Q07DX002 (ip), vehicle: saline, higher T/C = larger tumour) is 125 % of control.

Consider `ClCC[Se](Cl)(Cl)c1ccccc1`, for which the T/C (T/C endpoint: median tumor weight (est.), dose: 3.12 mg/kg/injection, schedule: Q07DX002 (ip), vehicle: suspension in saline, higher T/C = larger tumour) is 149 % of control. Further, the survivor count is on record as 6 of 10 on day 20 (T/C endpoint: median tumor weight (est.), dose: 12.5 mg/kg/injection, schedule: Q07DX002 (ip), vehicle: suspension in saline, higher T/C = larger tumour); 0 of 10 on day 20 under setting [1]; 0 of 10 on day 20 (T/C endpoint: median tumor weight (est.), dose: 25.0 mg/kg/injection, schedule: Q07DX002 (ip), vehicle: suspension in saline, higher T/C = larger tumour); 0 of 10 on day 20 (T/C endpoint: median tumor weight (est.), dose: 50.0 mg/kg/injection, schedule: Q07DX002 (ip), vehicle: saline, higher T/C = larger tumour); 0 of 10 on day 20 (T/C endpoint: median tumor weight (est.), dose: 50.0 mg/kg/injection, schedule: Q07DX002 (ip), vehicle: suspension in saline, higher T/C = larger tumour).

On to `CC1(C)N=C(N)N=C(N)N1c1ccc(F)c(C(F)(F)F)c1`, for which the T/C (T/C endpoint: median tumor weight (est.), dose: 3.12 mg/kg/injection, schedule: Q07DX002 (ip), vehicle: saline, higher T/C = larger tumour) is 133 % of control. The survivor count (T/C endpoint: median tumor weight (est.), dose: 6.25 mg/kg/injection, schedule: Q07DX003 (ip), vehicle: suspension in saline, higher T/C = larger tumour) was 6 of 10 on day 20 and the survivor count (T/C endpoint: median tumor weight (est.), dose: 200.0 mg/kg/injection, schedule: Q07DX003 (ip), vehicle: suspension in saline, higher T/C = larger tumour) is 0 of 10 on day 20.

In the case of `O=C(CCBr)N1CCN(C(=O)CCBr)CC1`, the survivor count (T/C endpoint: median tumor weight (est.), dose: 640.0 mg/kg/injection, schedule: Q07DX002 (ip), vehicle: saline with Tween-80, higher T/C = larger tumour) is reported as 4 of 10 on day 20.

As for `COc1cc2cc[n+](C)c(Cc3ccccc3)c2cc1OC`, where the note is “T/C endpoint: median tumor weight (est.), dose: 6.25 mg/kg/injection, schedule: Q07DX003 (ip), vehicle: saline, higher T/C = larger tumour”, the T/C was 131 % of control.

Consider `CC1(C)COCN1COCCOCN1COCC1(C)C`, for which, under setting [3], the T/C was 130 % of control and the survivor count is given as 3 of 10 on day 20. For the same compound, the survivor count under setting [4] was 0 of 10 on day 20.

As for `CC(=O)O[C@H]1C(=O)[C@@]2(C)[C@H]([C@H](OC(=O)c3ccccc3)[C@]3(O)C[C@H](OC(=O)[C@H](O)[C@@H](NC(=O)c4ccccc4)c4ccccc4)C(C)=C1C3(C)C)[C@]1(OC(C)=O)CO[C@@H]1C[C@@H]2O`, the T/C (T/C endpoint: median tumor weight (est.), dose: 15.0 mg/kg/injection, schedule: Q07DX002 (ip), vehicle: Klucel (hydroxypropylcellulose) (HPC), higher T/C = larger tumour) was 131 % of control [9 of 10 alive].

In the case of `C=C(NC(=O)C(=C)NC(=O)c1csc(C2=NC3c4csc(n4)C4NC(=O)c5csc(n5)C(C(C)(O)C(C)O)NC(=O)C5CSC(=N5)/C(=C/C)NC(=O)C(C(C)O)NC(=O)c5csc(n5)C3(CC2)NC(=O)C(C)NC(=O)C(=C)NC(=O)C(C)NC(=O)C(C(C)CC)NC2C=Cc3c(C(C)O)cc(nc3C2O)C(=O)OC4C)n1)C(N)=O` (configuration not stated), the T/C is, setting by setting: (T/C endpoint: median tumor weight (est.), dose: 12.5 mg/kg/injection, schedule: Q07DX003 (ip), vehicle: Klucel (hydroxypropylcellulose) (HPC), higher T/C = larger tumour) 129 and 143 % of control; (T/C endpoint: median tumor weight (est.), dose: 25.0 mg/kg/injection, schedule: Q07DX002 (ip), vehicle: Klucel (hydroxypropylcellulose) (HPC), higher T/C = larger tumour) 149 % of control.

Consider `Cc1cc2c(cc1C)C(=O)c1c(O)c3c(c(O)c1C2=O)C[C@@](O)(C(=O)CO)C[C@@H]3OC1CC(N)C(O)C(C)O1` (some centres not stated), for which the survivor count (T/C endpoint: median tumor weight (est.), dose: 20.0 mg/kg/injection, schedule: Q07DX002 (ip), vehicle: distilled water + Tween-80, higher T/C = larger tumour) is recorded as 1 of 10 on day 20.

`O=c1s[se]c2ccccc12`: the T/C (T/C endpoint: median tumor weight (est.), dose: 6.25 mg/kg/injection, schedule: Q07DX002 (ip), vehicle: saline with Tween-80, higher T/C = larger tumour) is 125 % of control. Further, the survivor count (T/C endpoint: median tumor weight (est.), dose: 100.0 mg/kg/injection, schedule: Q07DX002 (ip), vehicle: saline with Tween-80, higher T/C = larger tumour) was 3 of 10 on day 20.

Turning to `CC(=O)OC1=NC(C)c2c1cc(OC(C)=O)[nH]c2=O` (configuration not stated), under “T/C endpoint: median tumor weight (est.), dose: 12.5 mg/kg/injection, schedule: Q07DX002 (ip), vehicle: Klucel (hydroxypropylcellulose) (HPC), higher T/C = larger tumour”, the T/C was 135 % of control. Further, the survivor count under setting [2] is 5 of 8 on day 20; the survivor count (T/C endpoint: median tumor weight (est.), dose: 200.0 mg/kg/injection, schedule: Q07DX002 (ip), vehicle: Klucel (hydroxypropylcellulose) (HPC), higher T/C = larger tumour) is 2 of 10 on day 20 and 4 of 10 on day 20; the survivor count (T/C endpoint: median tumor weight (est.), dose: 400.0 mg/kg/injection, schedule: Q07DX002 (ip), vehicle: Klucel (hydroxypropylcellulose) (HPC), higher T/C = larger tumour) was 0 of 10 on day 20 and 1 of 10 on day 20.
